Measured values from patent US20240287205A1.
Where a chain is given by its changes, count along the chain named. Results are given in words; binding and its absence hold for the method and conditions named. Some results given as binding are weak or reduced against the parent protein; the word gives no strength.

B1: antibody #9101 (antibody, mouse IgG1, V domains shown)
VH: EVQLLESGGGLVQPGGSLRLSCAASGFTFSNYAMSWVRQAPGKGLEWVSGIYPNGGNKYYADSVKGRFTISRDNSKNTLYLQMNSLRAEDTAVYYCAKNAYRFDYWGQGTLVTVSS
VL: QSVLTQPPSASGTPGQRVTISCSGSSSNIGNNYVSWYQQLPGTAPKLLIYADSKRPSGVPDRFSGSKSGTSASLAIGGLRSEDEADYYCGSWDYSLNAYVFGGGTKLTVLG
B2: antibody #9104 (antibody, mouse IgG1, V domains shown)
VH: B1 VH with A33Y, P53Y, N54G, G55S, K58I, K98R, N99D, A100T, Y101P, R102G
VL: B1 VL with S23T, Y33A, S35N, A51Y, K54H, G77S, S91A, N97S
B3: antibody #9108 (antibody, mouse IgG1, V domains shown)
VH: EVQLLESGGGLVQPGGSLRLSCAASGFTFSNYAMSWVRQAPGKGLEWVSAIYPGGGSIYYADSVKGRFTISRDNSKNTLYLQMNSLRAEDTAVYYCARDVLGLTPKPFDYWGQGTLVTVSS
VL: B1 VL with I20L, S23T, N31S, Y33T, S35Y, D52N, K54Q, G77S, N97S, A98G
B4: antibody #9113 (antibody, mouse IgG1, V domains shown)
VH: EVQLLESGGGLVQPGGSLRLSCAASGFTFSSYYMSWVRQAPGKGLEWVSSISPGGSSIYYADSVKGRFTISRDNSKNTLYLQMNSLRAEDTAVYYCAKGASLFDYWGQGTLVTVSS
VL: B1 VL with Y33A, A51S, S53N, G77S, S91T, Y94A

How the values were obtained:
[1] = molecular target: T1, human acid sphingomyelinase (ASM) protein (human) (UniProt P17405); assay: ELISA, plate coated with recombinant human ASM
T1 sequence: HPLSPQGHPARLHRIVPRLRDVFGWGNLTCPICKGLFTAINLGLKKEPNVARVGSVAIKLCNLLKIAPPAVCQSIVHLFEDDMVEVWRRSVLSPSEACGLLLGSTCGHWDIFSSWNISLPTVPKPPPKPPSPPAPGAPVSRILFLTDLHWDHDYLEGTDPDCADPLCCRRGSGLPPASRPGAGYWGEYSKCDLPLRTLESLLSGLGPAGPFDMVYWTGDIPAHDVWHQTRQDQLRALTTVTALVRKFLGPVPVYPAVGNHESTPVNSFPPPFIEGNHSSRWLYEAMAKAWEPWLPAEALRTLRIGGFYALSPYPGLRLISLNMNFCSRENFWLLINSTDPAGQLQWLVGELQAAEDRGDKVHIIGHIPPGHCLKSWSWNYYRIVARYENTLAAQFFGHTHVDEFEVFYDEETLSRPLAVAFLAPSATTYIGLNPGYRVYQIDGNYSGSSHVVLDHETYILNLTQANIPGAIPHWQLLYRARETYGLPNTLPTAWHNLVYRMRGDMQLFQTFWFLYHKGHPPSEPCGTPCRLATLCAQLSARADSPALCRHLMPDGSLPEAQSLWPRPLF

[2] = molecular target: T1, human acid sphingomyelinase (ASM) protein (human); assay: BLI (Octet QK384), human ASM immobilised on AR2G sensor
[3] = molecular target: T1, human acid sphingomyelinase (ASM) protein (human); assay: ELISA on plate-coated recombinant human ASM, goat anti-mouse IgG-HRP, O.D 450 nm
[4] = molecular target: T2, mouse acid sphingomyelinase (ASM) protein (mouse) (UniProt Q04519); assay: BLI (Octet QK384), mouse ASM immobilised on AR2G sensor
T2 sequence: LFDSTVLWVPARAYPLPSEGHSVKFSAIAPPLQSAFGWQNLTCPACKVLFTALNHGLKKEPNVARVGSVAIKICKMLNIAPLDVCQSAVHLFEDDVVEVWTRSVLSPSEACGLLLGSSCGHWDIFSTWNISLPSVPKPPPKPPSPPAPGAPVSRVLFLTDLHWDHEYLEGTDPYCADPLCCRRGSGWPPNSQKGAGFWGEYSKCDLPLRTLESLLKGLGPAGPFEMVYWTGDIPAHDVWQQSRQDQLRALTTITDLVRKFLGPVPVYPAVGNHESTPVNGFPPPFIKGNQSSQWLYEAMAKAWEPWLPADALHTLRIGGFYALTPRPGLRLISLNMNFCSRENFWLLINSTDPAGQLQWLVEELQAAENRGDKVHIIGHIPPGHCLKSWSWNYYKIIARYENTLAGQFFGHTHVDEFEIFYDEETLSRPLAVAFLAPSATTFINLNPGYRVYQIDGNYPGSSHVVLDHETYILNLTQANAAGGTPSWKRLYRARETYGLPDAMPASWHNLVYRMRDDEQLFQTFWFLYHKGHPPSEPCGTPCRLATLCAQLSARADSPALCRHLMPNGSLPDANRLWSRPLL

Row | Binder | binding [1] | binding [2] | binding [3] | binding [4]
1 | B1 | binds | binds | binds | –
2 | B2 | binds | binds | binds | binds
3 | B3 | binds | binds | binds | –
4 | B4 | – | binds | – | –
